Results are given in words; binding and its absence hold for the method and conditions named. For some assays here: Binding seen in cells or lysates may run through a third protein. Some entries that bind do so weakly or less than the wild type. Where a sequence is shown, tags or fusion partners need not be part of it.
Tests used:
[1] = molecular target: T1, Tespa1 (two-hybrid fusion) (mouse) (UniProt Q3U132); assay: two-hybrid; 'a two-hybrid system'; kind not told
T1 sequence: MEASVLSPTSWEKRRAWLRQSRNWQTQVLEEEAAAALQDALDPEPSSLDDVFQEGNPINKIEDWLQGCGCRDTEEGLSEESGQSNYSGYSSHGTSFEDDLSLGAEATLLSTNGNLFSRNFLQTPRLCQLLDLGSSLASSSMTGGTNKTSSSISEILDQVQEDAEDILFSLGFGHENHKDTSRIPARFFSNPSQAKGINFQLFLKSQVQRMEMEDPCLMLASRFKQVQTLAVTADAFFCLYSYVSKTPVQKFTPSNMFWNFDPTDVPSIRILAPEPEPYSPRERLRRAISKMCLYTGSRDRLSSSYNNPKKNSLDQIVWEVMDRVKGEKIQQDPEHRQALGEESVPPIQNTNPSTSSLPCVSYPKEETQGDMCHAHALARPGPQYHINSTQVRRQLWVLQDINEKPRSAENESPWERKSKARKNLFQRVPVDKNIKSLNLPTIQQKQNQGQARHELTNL

Sequences of proteins named here, by UniProt entry; tags and fusion partners are left off. Residues count along the entry.
UniProt P11881, residues 1-610: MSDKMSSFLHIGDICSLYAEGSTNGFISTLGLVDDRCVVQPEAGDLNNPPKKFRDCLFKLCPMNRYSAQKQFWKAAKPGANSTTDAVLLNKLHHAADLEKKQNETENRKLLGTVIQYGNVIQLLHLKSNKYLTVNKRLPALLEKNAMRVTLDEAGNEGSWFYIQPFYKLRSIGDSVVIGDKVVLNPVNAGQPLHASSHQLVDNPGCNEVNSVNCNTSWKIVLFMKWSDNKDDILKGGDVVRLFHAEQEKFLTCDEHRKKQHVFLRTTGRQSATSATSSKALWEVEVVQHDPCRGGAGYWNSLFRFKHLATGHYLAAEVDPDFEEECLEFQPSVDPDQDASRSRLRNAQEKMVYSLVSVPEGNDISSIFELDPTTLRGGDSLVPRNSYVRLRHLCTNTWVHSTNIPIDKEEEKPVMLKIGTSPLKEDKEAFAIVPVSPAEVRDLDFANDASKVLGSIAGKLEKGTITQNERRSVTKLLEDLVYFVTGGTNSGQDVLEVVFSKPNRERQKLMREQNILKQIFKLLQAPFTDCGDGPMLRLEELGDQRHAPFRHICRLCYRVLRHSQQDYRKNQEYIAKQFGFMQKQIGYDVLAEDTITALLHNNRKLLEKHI

[2] = molecular target: T2, Flag-tagged full-length Tespa1 (FL) (mouse) (UniProt Q3U132); assay: co-IP; HEK293 cells co-transfected with Flag-tagged Tespa1 and HA-tagged PLC-γ1 or its mutants; NP-40 lysis buffer (50 mM Tris pH 7.4, 150 mM NaCl, 1% NP-40); anti-Flag beads 4 h at 4 °C; blots with anti-Flag and anti-HA
T2 sequence: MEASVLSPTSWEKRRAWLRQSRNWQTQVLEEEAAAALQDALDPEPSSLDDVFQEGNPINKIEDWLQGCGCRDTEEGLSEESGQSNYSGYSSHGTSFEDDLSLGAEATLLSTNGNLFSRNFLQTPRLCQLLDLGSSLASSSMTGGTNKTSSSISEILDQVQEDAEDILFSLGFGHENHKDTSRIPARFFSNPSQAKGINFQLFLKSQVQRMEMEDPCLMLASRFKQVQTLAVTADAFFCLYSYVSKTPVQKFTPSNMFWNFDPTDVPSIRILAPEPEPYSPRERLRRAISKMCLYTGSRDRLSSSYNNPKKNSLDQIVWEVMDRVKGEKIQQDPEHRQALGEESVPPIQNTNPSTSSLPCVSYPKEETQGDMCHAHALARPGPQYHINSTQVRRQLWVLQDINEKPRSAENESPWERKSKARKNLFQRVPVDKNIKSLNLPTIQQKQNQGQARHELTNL

## IP3R1-N (two-hybrid fusion) (from UniProt P11881 1-610) (domain or fragment)
[1]
  binding: binds

B1: HA-tagged full-length PLC-γ1 (FL) (enzyme, UniProt P19174 1-1290)
chain: MAGAASPCANGCGPGAPSDAEVLHLCRSLEVGTVMTLFYSKKSQRPERKTFQVKLETRQITWSRGADKIEGAIDIREIKEIRPGKTSRDFDRYQEDPAFRPDQSHCFVILYGMEFRLKTLSLQATSEDEVNMWIKGLTWLMEDTLQAPTPLQIERWLRKQFYSVDRNREDRISAKDLKNMLSQVNYRVPNMRFLRERLTDLEQRSGDITYGQFAQLYRSLMYSAQKTMDLPFLEASTLRAGERPELCRVSLPEFQQFLLDYQGELWAVDRLQVQEFMLSFLRDPLREIEEPYFFLDEFVTFLFSKENSVWNSQLDAVCPDTMNNPLSHYWISSSHNTYLTGDQFSSESSLEAYARCLRMGCRCIELDCWDGPDGMPVIYHGHTLTTKIKFSDVLHTIKEHAFVASEYPVILSIEDHCSIAQQRNMAQYFKKVLGDTLLTKPVEISADGLPSPNQLKRKILIKHKKLAEGSAYEEVPTSMMYSENDISNSIKNGILYLEDPVNHEWYPHYFVLTSSKIYYSEETSSDQGNEDEEEPKEVSSSTELHSNEKWFHGKLGAGRDGRHIAERLLTEYCIETGAPDGSFLVRESETFVGDYTLSFWRNGKVQHCRIHSRQDAGTPKFFLTDNLVFDSLYDLITHYQQVPLRCNEFEMRLSEPVPQTNAHESKEWYHASLTRAQAEHMLMRVPRDGAFLVRKRNEPNSYAISFRAEGKIKHCRVQQEGQTVMLGNSEFDSLVDLISYYEKHPLYRKMKLRYPINEEALEKIGTAEPDYGALYEGRNPGFYVEANPMPTFKCAVKALFDYKAQREDELTFIKSAIIQNVEKQEGGWWRGDYGGKKQLWFPSNYVEEMVNPVALEPEREHLDENSPLGDLLRGVLDVPACQIAIRPEGKNNRLFVFSISMASVAHWSLDVAADSQEELQDWVKKIREVAQTADARLTEGKIMERRKKIALELSELVVYCRPVPFDEEKIGTERACYRDMSSFPETKAEKYVNKAKGKKFLQYNRLQLSRIYPKGQRLDSSNYDPLPMWICGSQLVALNFQTPDKPMQMNQALFMTGRHCGYVLQPSTMRDEAFDPFDKSSLRGLEPCAISIEVLGARHLPKNGRGIVCPFVEIEVAGAEYDSTKQKTEFVVDNGLNPVWPAKPFHFQISNPEFAFLRFVVYEEDMFSDQNFLAQATFPVKGLKTGYRAVPLKNNYSEDLELASLLIKIDIFPAKENGDLSPFSGTSLRERGSDASGQLFHGRAREGSFESRYQQPFEDFRISQEHLADHFDSRERRAPRRTRVNGDNRL
[2]
  binding: binds weakly

B2: PLC-γ1 E347K (enzyme, UniProt P19174 1-1290)
chain: MAGAASPCANGCGPGAPSDAEVLHLCRSLEVGTVMTLFYSKKSQRPERKTFQVKLETRQITWSRGADKIEGAIDIREIKEIRPGKTSRDFDRYQEDPAFRPDQSHCFVILYGMEFRLKTLSLQATSEDEVNMWIKGLTWLMEDTLQAPTPLQIERWLRKQFYSVDRNREDRISAKDLKNMLSQVNYRVPNMRFLRERLTDLEQRSGDITYGQFAQLYRSLMYSAQKTMDLPFLEASTLRAGERPELCRVSLPEFQQFLLDYQGELWAVDRLQVQEFMLSFLRDPLREIEEPYFFLDEFVTFLFSKENSVWNSQLDAVCPDTMNNPLSHYWISSSHNTYLTGDQFSSKSSLEAYARCLRMGCRCIELDCWDGPDGMPVIYHGHTLTTKIKFSDVLHTIKEHAFVASEYPVILSIEDHCSIAQQRNMAQYFKKVLGDTLLTKPVEISADGLPSPNQLKRKILIKHKKLAEGSAYEEVPTSMMYSENDISNSIKNGILYLEDPVNHEWYPHYFVLTSSKIYYSEETSSDQGNEDEEEPKEVSSSTELHSNEKWFHGKLGAGRDGRHIAERLLTEYCIETGAPDGSFLVRESETFVGDYTLSFWRNGKVQHCRIHSRQDAGTPKFFLTDNLVFDSLYDLITHYQQVPLRCNEFEMRLSEPVPQTNAHESKEWYHASLTRAQAEHMLMRVPRDGAFLVRKRNEPNSYAISFRAEGKIKHCRVQQEGQTVMLGNSEFDSLVDLISYYEKHPLYRKMKLRYPINEEALEKIGTAEPDYGALYEGRNPGFYVEANPMPTFKCAVKALFDYKAQREDELTFIKSAIIQNVEKQEGGWWRGDYGGKKQLWFPSNYVEEMVNPVALEPEREHLDENSPLGDLLRGVLDVPACQIAIRPEGKNNRLFVFSISMASVAHWSLDVAADSQEELQDWVKKIREVAQTADARLTEGKIMERRKKIALELSELVVYCRPVPFDEEKIGTERACYRDMSSFPETKAEKYVNKAKGKKFLQYNRLQLSRIYPKGQRLDSSNYDPLPMWICGSQLVALNFQTPDKPMQMNQALFMTGRHCGYVLQPSTMRDEAFDPFDKSSLRGLEPCAISIEVLGARHLPKNGRGIVCPFVEIEVAGAEYDSTKQKTEFVVDNGLNPVWPAKPFHFQISNPEFAFLRFVVYEEDMFSDQNFLAQATFPVKGLKTGYRAVPLKNNYSEDLELASLLIKIDIFPAKENGDLSPFSGTSLRERGSDASGQLFHGRAREGSFESRYQQPFEDFRISQEHLADHFDSRERRAPRRTRVNGDNRL
[2]
  binding: binds

B3: PLC-γ1 Y747/R748E (enzyme, UniProt P19174 1-1290)
chain: MAGAASPCANGCGPGAPSDAEVLHLCRSLEVGTVMTLFYSKKSQRPERKTFQVKLETRQITWSRGADKIEGAIDIREIKEIRPGKTSRDFDRYQEDPAFRPDQSHCFVILYGMEFRLKTLSLQATSEDEVNMWIKGLTWLMEDTLQAPTPLQIERWLRKQFYSVDRNREDRISAKDLKNMLSQVNYRVPNMRFLRERLTDLEQRSGDITYGQFAQLYRSLMYSAQKTMDLPFLEASTLRAGERPELCRVSLPEFQQFLLDYQGELWAVDRLQVQEFMLSFLRDPLREIEEPYFFLDEFVTFLFSKENSVWNSQLDAVCPDTMNNPLSHYWISSSHNTYLTGDQFSSESSLEAYARCLRMGCRCIELDCWDGPDGMPVIYHGHTLTTKIKFSDVLHTIKEHAFVASEYPVILSIEDHCSIAQQRNMAQYFKKVLGDTLLTKPVEISADGLPSPNQLKRKILIKHKKLAEGSAYEEVPTSMMYSENDISNSIKNGILYLEDPVNHEWYPHYFVLTSSKIYYSEETSSDQGNEDEEEPKEVSSSTELHSNEKWFHGKLGAGRDGRHIAERLLTEYCIETGAPDGSFLVRESETFVGDYTLSFWRNGKVQHCRIHSRQDAGTPKFFLTDNLVFDSLYDLITHYQQVPLRCNEFEMRLSEPVPQTNAHESKEWYHASLTRAQAEHMLMRVPRDGAFLVRKRNEPNSYAISFRAEGKIKHCRVQQEGQTVMLGNSEFDSLVDLISYYEKHPLEEKMKLRYPINEEALEKIGTAEPDYGALYEGRNPGFYVEANPMPTFKCAVKALFDYKAQREDELTFIKSAIIQNVEKQEGGWWRGDYGGKKQLWFPSNYVEEMVNPVALEPEREHLDENSPLGDLLRGVLDVPACQIAIRPEGKNNRLFVFSISMASVAHWSLDVAADSQEELQDWVKKIREVAQTADARLTEGKIMERRKKIALELSELVVYCRPVPFDEEKIGTERACYRDMSSFPETKAEKYVNKAKGKKFLQYNRLQLSRIYPKGQRLDSSNYDPLPMWICGSQLVALNFQTPDKPMQMNQALFMTGRHCGYVLQPSTMRDEAFDPFDKSSLRGLEPCAISIEVLGARHLPKNGRGIVCPFVEIEVAGAEYDSTKQKTEFVVDNGLNPVWPAKPFHFQISNPEFAFLRFVVYEEDMFSDQNFLAQATFPVKGLKTGYRAVPLKNNYSEDLELASLLIKIDIFPAKENGDLSPFSGTSLRERGSDASGQLFHGRAREGSFESRYQQPFEDFRISQEHLADHFDSRERRAPRRTRVNGDNRL
[2]
  binding: binds

B4: PLC-γ1 D1019K (enzyme, UniProt P19174 1-1290)
chain: MAGAASPCANGCGPGAPSDAEVLHLCRSLEVGTVMTLFYSKKSQRPERKTFQVKLETRQITWSRGADKIEGAIDIREIKEIRPGKTSRDFDRYQEDPAFRPDQSHCFVILYGMEFRLKTLSLQATSEDEVNMWIKGLTWLMEDTLQAPTPLQIERWLRKQFYSVDRNREDRISAKDLKNMLSQVNYRVPNMRFLRERLTDLEQRSGDITYGQFAQLYRSLMYSAQKTMDLPFLEASTLRAGERPELCRVSLPEFQQFLLDYQGELWAVDRLQVQEFMLSFLRDPLREIEEPYFFLDEFVTFLFSKENSVWNSQLDAVCPDTMNNPLSHYWISSSHNTYLTGDQFSSESSLEAYARCLRMGCRCIELDCWDGPDGMPVIYHGHTLTTKIKFSDVLHTIKEHAFVASEYPVILSIEDHCSIAQQRNMAQYFKKVLGDTLLTKPVEISADGLPSPNQLKRKILIKHKKLAEGSAYEEVPTSMMYSENDISNSIKNGILYLEDPVNHEWYPHYFVLTSSKIYYSEETSSDQGNEDEEEPKEVSSSTELHSNEKWFHGKLGAGRDGRHIAERLLTEYCIETGAPDGSFLVRESETFVGDYTLSFWRNGKVQHCRIHSRQDAGTPKFFLTDNLVFDSLYDLITHYQQVPLRCNEFEMRLSEPVPQTNAHESKEWYHASLTRAQAEHMLMRVPRDGAFLVRKRNEPNSYAISFRAEGKIKHCRVQQEGQTVMLGNSEFDSLVDLISYYEKHPLYRKMKLRYPINEEALEKIGTAEPDYGALYEGRNPGFYVEANPMPTFKCAVKALFDYKAQREDELTFIKSAIIQNVEKQEGGWWRGDYGGKKQLWFPSNYVEEMVNPVALEPEREHLDENSPLGDLLRGVLDVPACQIAIRPEGKNNRLFVFSISMASVAHWSLDVAADSQEELQDWVKKIREVAQTADARLTEGKIMERRKKIALELSELVVYCRPVPFDEEKIGTERACYRDMSSFPETKAEKYVNKAKGKKFLQYNRLQLSRIYPKGQRLKSSNYDPLPMWICGSQLVALNFQTPDKPMQMNQALFMTGRHCGYVLQPSTMRDEAFDPFDKSSLRGLEPCAISIEVLGARHLPKNGRGIVCPFVEIEVAGAEYDSTKQKTEFVVDNGLNPVWPAKPFHFQISNPEFAFLRFVVYEEDMFSDQNFLAQATFPVKGLKTGYRAVPLKNNYSEDLELASLLIKIDIFPAKENGDLSPFSGTSLRERGSDASGQLFHGRAREGSFESRYQQPFEDFRISQEHLADHFDSRERRAPRRTRVNGDNRL
[2]
  binding: binds

— article PMC5472764
